# Among all 410,000 compounds or so, about 310 (0.076%) were called active. This list was built around the results that the source calls inconclusive (neither active nor inactive); the mix of calls is not that of the screen. Calls come from the whole dose curve; as a rule, active = well fitted activation curve with a large enough effect; inconclusive = small, poorly fitted or top-dose-only effect, or another doubt; inactive = no such curve, though single readings can be large or run the other way. Potencies beside an inconclusive call are fits to weak or partial responses and may not hold up.
# By UniProt entry, the sequences of proteins in these tests, tags left out. Where a name states a change or a piece, a line headed by the entry shows the natural chain unless it says otherwise.
# UniProt Q03431: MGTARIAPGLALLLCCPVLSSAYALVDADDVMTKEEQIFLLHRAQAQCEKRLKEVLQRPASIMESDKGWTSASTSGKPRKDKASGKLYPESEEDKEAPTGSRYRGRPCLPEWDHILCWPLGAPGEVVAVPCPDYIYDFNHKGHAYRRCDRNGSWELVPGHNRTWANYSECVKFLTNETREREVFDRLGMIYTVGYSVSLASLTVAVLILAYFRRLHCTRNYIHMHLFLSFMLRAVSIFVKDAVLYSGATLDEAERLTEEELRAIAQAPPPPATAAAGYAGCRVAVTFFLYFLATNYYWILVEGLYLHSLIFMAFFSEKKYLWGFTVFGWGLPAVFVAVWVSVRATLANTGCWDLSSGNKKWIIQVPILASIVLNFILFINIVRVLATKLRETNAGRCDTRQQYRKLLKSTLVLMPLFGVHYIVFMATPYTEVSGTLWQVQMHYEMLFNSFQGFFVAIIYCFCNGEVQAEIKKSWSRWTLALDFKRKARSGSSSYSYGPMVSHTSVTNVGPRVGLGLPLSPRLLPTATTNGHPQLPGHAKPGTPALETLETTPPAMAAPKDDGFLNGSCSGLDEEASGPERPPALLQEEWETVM
# Molecular target: Parathyroid hormone/parathyroid hormone-related peptide receptor (Homo sapiens) (UniProt Q03431)
# Experiment: qHTS for PTHR1 Agonists: Primary Screen; note: nearly all actives have a fitted effect of over 55% in size
# Conditions: HEK293 GP2 PTHR1 cells, GloSensor cAMP luminescence, 1 h; activation: at 115 µM (top of the series) unless noted; series mostly up to 115 µM
# Outline: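 HEK-293-derived GP2 cells expressing PTHR1 and a GloSensor cAMP reporter, 3,000/well, plated overnight, given luciferin plus IBMX (each 0.5 mM as added) for 1 h at 37 °C, then compound for 1 h at 37 °C. Luminescence was read after 15 min at room temperature.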
# Potency is the fitted concentration of half-maximal effect.
SMILES,outcome,Potency,activation
Cc1ccc(S(=O)(=O)NC(C(=O)Oc2ccc3c(C(F)(F)F)cc(=O)oc3c2)c2ccccc2)cc1 (stereo unspecified),inactive,,
COc1cc2[nH]c(=S)n(N(C(C)=O)C(C)=O)c(=O)c2cc1OC,,"inconclusive: 0.153 µM [activator, full curve]",
C[C@H](O)[C@@H]1CN2CCc3c([nH]c4ccc(-c5ccc6c(c5)OCO6)cc34)[C@@H]2C[C@@H]1N(C)C(=O)Nc1ccc(F)cc1,,,inactive: -6.94%
COc1ccc(-c2nn(C)c3sc(C(=O)Nc4cccc(F)c4)cc23)cc1OC,,,inconclusive: 42.9% [activator]
O=C(CCNC(=O)Cn1ccc2ccccc2c1=O)NCCN1CCN(c2cccc(Cl)c2)CC1,,,inactive: -12.6%
Cc1nn(CC(=O)NC2CC2)c(=O)c2cc3ccccc3n12,,"inconclusive: 35.5 µM [activator, partial curve]",
COc1ccc(OC(F)(F)F)cc1CC1(C)C(=O)Nc2ccc(S(=O)(=O)NC3CCCCC3)cc21 (stereo unspecified),,,inactive: -85.2%
Cc1ccccc1NC(=O)CSc1nnc(-c2ccccc2)n1-c1ccccc1,,,inconclusive: -19.6% [activator] [at 57.5 µM]
O=C(c1cc2c(=O)oc3ccccc3c2s1)N1CCN(c2cccc(Cl)c2)CC1,,"inconclusive: 5.62 µM [activator, full curve, poor fit]",
COc1ccc(NC(=O)Cn2cnc3sc(C)c(S(=O)(=O)N4CCN(C)CC4)c3c2=O)cc1OC,,"inconclusive: 141 µM [activator, single point]",
CCOc1ccc(CNC(=O)c2cc3oc4ccccc4c3n2C)cc1,,,inconclusive: -72% [activator]
O=c1ccn([C@@H]2O[C@H](CNCc3cccn3-c3ccncc3)[C@@H](O)[C@H]2O)c(=O)[nH]1,,,inconclusive: 52.5% [activator]
CCN(CC(=O)Nc1ccc(NC(C)=O)cc1)CC(=O)Nc1ccc(Cl)c(Cl)c1,,,inactive: -6.69%
O=c1[nH]c(-c2ccccc2)nc(CN2CCCCC2)c1O,,"inconclusive: 100 µM [activator, partial curve, poor fit]",
CC(C)Nc1nc(Nc2ccc(F)cc2)c2sccc2n1,,"inconclusive: 31.6 µM [activator, single point]",
CC(C)OC(=O)CSc1nc2c(cc1C#N)CCCCC2,,"inconclusive: 25.1 µM [activator, partial curve, poor fit]",
CCn1cc(C2CC(=O)NC2=O)c2ccccc21 (stereo unspecified),,,inconclusive: 39.5% [activator]
Cc1cccc(N2CCN(C(=O)C3CCN(S(=O)(=O)c4cccs4)CC3)CC2)c1C,,,inactive: -22.3%
CC12CC(c3ccccc3O1)N(C(=O)c1ccco1)C(=S)N2c1ccccc1 (stereo unspecified),,"inconclusive: 35.5 µM [activator, partial curve, poor fit]",
Cc1cc(Cl)ccc1OCCCC(=O)NC1CCN(C)CC1,,"inconclusive: 28.2 µM [activator, partial curve]",
Cc1ccn2c(NC3CCCCC3)c(-c3cccc(-c4cccc(Cl)c4)c3)nc2c1,inactive,,
O=C(N/N=C(\Cc1ncc[nH]1)c1ccccc1)c1ccncc1,,,inconclusive: 44.3% [activator]
CCc1cccc(NC(=O)Cn2c(=O)n(CCc3ccc(OC)c(OC)c3)c(=O)c3ccccc32)c1,,"inconclusive: 112 µM [activator, single point]",
CCOc1ccccc1NC(=O)c1sc(-n2nc(C)c(CCC(C)C)c2C)nc1C,,"inconclusive: 100 µM [activator, single point]",

# 2 entries from above, with tabs.
SMILES	outcome	Potency	activation
Cc1ccc(S(=O)(=O)NC(C(=O)Oc2ccc3c(C(F)(F)F)cc(=O)oc3c2)c2ccccc2)cc1 (stereo unspecified)	inactive		
Cc1nn(CC(=O)NC2CC2)c(=O)c2cc3ccccc3n12		inconclusive: 35.5 µM [activator, partial curve]	

# Additional entries.

SMILES,outcome,Potency,activation
O=C(NCC1CCCO1)C1CCN(C2CCN(Cc3ccco3)CC2)CC1 (stereo unspecified),,"inconclusive: 126 µM [activator, single point]",
COc1ccc(C(C(=O)NC2CCCC2)N(Cc2cccnc2)C(=O)c2snc(C(N)=O)c2N)cc1 (stereo unspecified),,"inconclusive: 39.8 µM [activator, partial curve, poor fit]",
CCC1CCCCN1CCCNC(=O)CN1C(=O)CSc2ccc(S(=O)(=O)N3CCC(C)CC3)cc21 (stereo unspecified),,"inconclusive: 141 µM [activator, single point]",
COCCCNC(=O)CCC(=O)N1Cc2ccccc2Oc2ncccc21,,"inconclusive: 112 µM [activator, partial curve, poor fit]",
Cc1ccccc1Nc1nc(Cl)c(C=O)s1,,"inconclusive: 126 µM [activator, single point]",
CCCCn1nnnc1C(c1cccs1)N1CCN(C/C=C/c2ccccc2)CC1 (stereo unspecified),,,inactive: -7.28%
CCc1ccc2oc(=O)cc(CN3CCCCC3)c2c1,,,inactive: -4.25%
CN(C)NC(=O)C12CCC(C)(C(=O)O1)C2(C)C (stereo unspecified),,,inactive: -28.4%
OC(CN1CCCCC1)CN(c1ccccc1)c1ccccc1 (stereo unspecified),,"inconclusive: 63.1 µM [activator, partial curve, poor fit]",
COc1ccc(C)cc1NC(=O)CN(C)S(=O)(=O)c1cnc[nH]1,,"inconclusive: 5.62 µM [activator, single point]",
CC(=O)NS(=O)(=O)c1ccc(NC(=O)/C=C/c2ccccc2Cl)cc1,,"inconclusive: 126 µM [activator, single point]",
C/C(=N\OC(=O)c1ccc(Cl)c(Cl)c1)c1sc(C)nc1C,,,inconclusive: -32.1% [activator]
Cn1nnc2cc(NC(=O)Nc3cccc(Cl)c3)ccc21,inactive,,
CC(OC(=O)c1cnc(Cl)c(Cl)c1)C(=O)NCc1ccccc1 (stereo unspecified),,,inactive: -69.4%
O=[N+]([O-])c1cccc(-c2n[nH]c(=S)n2-c2ccc(Br)cc2)c1,,,inactive: 18.2%
CNC(=O)CSc1nnc(-c2ccco2)n1-c1cccc(OC)c1,,"inconclusive: 126 µM [activator, single point]",
CCC(C)[C@H]1CNCCN1CCc1cccc2ccccc12 (stereo partly specified),,"inconclusive: 89.1 µM [activator, single point]",
COCCn1c(=O)[nH]c2cc(C(=O)NCCN3CCN(c4ccccc4F)CC3)ccc2c1=O,inactive [at 57.5 µM],,
O=C(O)CSCC(=O)NCc1cccc(C(F)(F)F)c1,,"inconclusive: 15.8 µM [activator, partial curve]",
COc1cc(N(C)C)ccc1C=c1c2ccccc2n2c1cc(-c1ccccc1)[n+]2C,,,inactive: -40.1%
COc1ccc(C)cc1-n1c(-c2ccc(C)cc2)cc2c1CC(C)(C)CC2=O,,,inconclusive: 33.5% [activator]
CCC(C)NC(=O)[C@H](CSCc1ccccc1)N1Cc2ccccc2C1=O (stereo partly specified),,,inactive: -3.5%
Cc1cccc(C)c1Nc1n[nH]c(=S)s1,inactive,,
O=C(c1ccsc1)N1CCCC(Nc2ccc(F)c(F)c2)C1 (stereo unspecified),,,inactive: -2.84%

# Filtered by structure, the compounds so far with four or more nitrogen atoms
SMILES,outcome,Potency,activation
C[C@H](O)[C@@H]1CN2CCc3c([nH]c4ccc(-c5ccc6c(c5)OCO6)cc34)[C@@H]2C[C@@H]1N(C)C(=O)Nc1ccc(F)cc1,,,inactive: -6.94%
O=C(CCNC(=O)Cn1ccc2ccccc2c1=O)NCCN1CCN(c2cccc(Cl)c2)CC1,,,inactive: -12.6%
Cc1nn(CC(=O)NC2CC2)c(=O)c2cc3ccccc3n12,,"inconclusive: 35.5 µM [activator, partial curve]",
Cc1ccccc1NC(=O)CSc1nnc(-c2ccccc2)n1-c1ccccc1,,,inconclusive: -19.6% [activator] [at 57.5 µM]
COc1ccc(NC(=O)Cn2cnc3sc(C)c(S(=O)(=O)N4CCN(C)CC4)c3c2=O)cc1OC,,"inconclusive: 141 µM [activator, single point]",
O=c1ccn([C@@H]2O[C@H](CNCc3cccn3-c3ccncc3)[C@@H](O)[C@H]2O)c(=O)[nH]1,,,inconclusive: 52.5% [activator]
CCN(CC(=O)Nc1ccc(NC(C)=O)cc1)CC(=O)Nc1ccc(Cl)c(Cl)c1,,,inactive: -6.69%
CC(C)Nc1nc(Nc2ccc(F)cc2)c2sccc2n1,,"inconclusive: 31.6 µM [activator, single point]",
O=C(N/N=C(\Cc1ncc[nH]1)c1ccccc1)c1ccncc1,,,inconclusive: 44.3% [activator]
CCOc1ccccc1NC(=O)c1sc(-n2nc(C)c(CCC(C)C)c2C)nc1C,,"inconclusive: 100 µM [activator, single point]",
COc1ccc(C(C(=O)NC2CCCC2)N(Cc2cccnc2)C(=O)c2snc(C(N)=O)c2N)cc1 (stereo unspecified),,"inconclusive: 39.8 µM [activator, partial curve, poor fit]",
CCC1CCCCN1CCCNC(=O)CN1C(=O)CSc2ccc(S(=O)(=O)N3CCC(C)CC3)cc21 (stereo unspecified),,"inconclusive: 141 µM [activator, single point]",
CCCCn1nnnc1C(c1cccs1)N1CCN(C/C=C/c2ccccc2)CC1 (stereo unspecified),,,inactive: -7.28%
COc1ccc(C)cc1NC(=O)CN(C)S(=O)(=O)c1cnc[nH]1,,"inconclusive: 5.62 µM [activator, single point]",
Cn1nnc2cc(NC(=O)Nc3cccc(Cl)c3)ccc21,inactive,,
O=[N+]([O-])c1cccc(-c2n[nH]c(=S)n2-c2ccc(Br)cc2)c1,,,inactive: 18.2%
CNC(=O)CSc1nnc(-c2ccco2)n1-c1cccc(OC)c1,,"inconclusive: 126 µM [activator, single point]",
COCCn1c(=O)[nH]c2cc(C(=O)NCCN3CCN(c4ccccc4F)CC3)ccc2c1=O,inactive [at 57.5 µM],,

# (more compounds)

SMILES,outcome,Potency,activation
Cc1ccc(NC(=S)N(CCCN2CCC(C)CC2)Cc2ccco2)cc1C,,,inconclusive: 34.9% [activator]
COc1ccccc1C(CNC(=O)c1cccc(NS(=O)(=O)c2ccc(C)c(F)c2)c1)N(C)C (stereo unspecified),inactive,,
CCOc1ccc(S(=O)(=O)N2CCC(N3CCN(Cc4ccc(C)cc4)C(=O)C3=O)CC2)cc1,inactive,,
O=C(Nc1ccc(S(=O)(=O)N2CCCC2)cc1)Nc1ccc(F)cc1F,,,inactive: -27.7%
O=C(c1ccccc1)c1ccc2nc(Nc3cc(Cl)ccc3O)c3nncn3c2c1,,"inconclusive: 31.6 µM [activator, partial curve, poor fit]",
O=c1[nH]c(/C=C/c2cccc([N+](=O)[O-])c2)c([N+](=O)[O-])c(=O)[nH]1,,,inactive: -40.4%
CCCC(=O)NC(c1ccc(Cl)cc1Cl)c1ccc2cccnc2c1O (stereo unspecified),,,inactive: -2.07%
Cc1ccsc1/C=C(\C(=O)c1ccc(OC(C)C)cc1)c1nc2ccccc2o1,inactive,,
Cc1ccc(Cl)c2sc(N3CCN(C(=O)c4ccco4)CC3)nc12,,,inactive: -33.7%
COc1ccc(NC(=O)c2cn3c4c(ccc(Cl)c4c2=O)OC(C)C3)cc1OC (stereo unspecified),,"inconclusive: 89.1 µM [activator, partial curve, poor fit]",
O=C(CCNS(=O)(=O)c1ccc(Br)cc1)NCCc1ccc(Cl)cc1,,,inactive: -20.6%
Cc1ccccc1C(=O)NNC(=S)Nc1cccc(C(F)(F)F)c1,,,inactive: -16.4%
CCCSc1nnc2c(n1)OC(c1cccn1C)N(C(C)=O)c1ccccc1-2 (stereo unspecified),,"inconclusive: 25.1 µM [activator, partial curve]",
CC(=O)c1cccc(NC(=O)NCc2ccccn2)c1,,"inconclusive: 2.82 µM [activator, partial curve, poor fit]",
Clc1ncnc2[nH]ccc12,,,inconclusive: 46.3% [activator]
CCCN(CCC)C(=O)Cn1c(=O)n(-c2ccc(CC)cc2)c(=O)c2c3c(sc21)CCC3,,,inconclusive: -93.4% [activator]
CN1CCN(c2ncnc3c2ncn3[C@H]2CN(C)C[C@@H](CO)O2)CC1,,"inconclusive: 0.767 µM [activator, full curve]",
COc1ccc(OC)c(/C=N/NC(=O)c2cc[n+](CC(=O)c3ccccc3)cc2)c1,,"inconclusive: 5.01 µM [activator, full curve, poor fit]",
COc1ccc(S(=O)(=O)Nc2ccc(N(C)C(C)=O)cc2)cc1,,"inconclusive: 15.8 µM [activator, single point]",
COC(=O)c1ccc(NC(=O)CN(Cc2ccc(Cl)cc2)S(C)(=O)=O)cc1,,"inconclusive: 22.4 µM [activator, single point]",
COc1ccc(NC2=C(C(C)=O)C(c3ccc4c(c3)OCO4)C(C(C)=O)C(C)(O)C2)cc1 (stereo unspecified),,"inconclusive: 39.8 µM [activator, single point]",
Cc1ccc(N2CC(C(=O)N3CCC(C(=O)NC(C)(C)C)CC3)CC2=O)cc1 (stereo unspecified),,"inconclusive: 112 µM [activator, single point]",
Cc1cc(C)n(-c2n[nH]c(C)c2[N+](=O)[O-])n1,,"inconclusive: 44.7 µM [activator, single point]",

# From PubChem BioAssay AID743266 (National Center for Advancing Translational Sciences (NCATS), 2014)
